In US9573970B2, “4-{4-[(1E)-4-(2,9-diazaspiro[5.5]undec-2-yl)but-1-en-1-yl]-2-methylbenzyl}-5-(propan-2-yl)-1H-pyrazol-3-yl beta-D glucopyranoside acetate” (Eli Lilly and Company, priority 2013, dated 2017):
At least one compound was matched to its structure with a doubt left.

System: male rats with STZ-induced diabetes
Experiment: Mixed meal tolerance test (MTT) in male rats with streptozotocin induced diabetes
Format: in vivo, rat
Conditions: in words; Example 1 free base 10 and 30 mg/kg, Acarbose 60 mg/kg
Experimental: The test compound is formulated by adding a vehicle of 1% hydroxyethylcellulose (HEC), 0.25% Tween® 80 w/antifoam 0.05% to preweighed test compound to make a 2.5 mg/ml solution. The mixture is probe sonicated for approximately 30 seconds. The resulting solution is used as a stock solution, from which the lower concentration dose solutions are prepared by dilution with the vehicle. STZ, 45 mg/kg, is formulated by dissolving in 0.1M Citrate buffer in 3 ml aliquots and stored in the dark on ice, when not being administered. A high fat content mixed meal (Bio-Serv® Rodent Diet F3282 High Fat) comprising Fat Calories (60%), Carbohydrate Calories (26%) and Protein Calories (15%) is utilized. Single housed Sprague Dawley rats are allowed to acclimate for a period of 3 to 7 days.
In an effort to ensure that the animals have not recently fed, STZ is administered in the afternoon, approximately six hours into the light cycle (lights on 6 am, lights off 6 pm). The animals are anesthetized with isoflurane and STZ is delivered via tail vein injection. Once animals regain consciousness, they are returned to housing and allowed to recover for 7 days.
On the two days immediately prior to the meal tolerance test (MTT) all rats are given a small amount (2-4 g) of the F3282 diet, so they became acclimated to it prior to receiving it during the experiment. […]

## C[C@H]1O[C@H](O[C@H]2[C@H](O)[C@@H](O)[C@@H](O[C@H]3[C@H](O)[C@@H](O)C(O)O[C@@H]3CO)O[C@@H]2CO)[C@H](O)[C@@H](O)[C@@H]1N[C@H]1C=C(CO)[C@@H](O)[C@H](O)[C@H]1O (some centres unmarked) [Acarbose, reference compound]
  Glucose baseline adjusted AUCs in the MTT: significantly decreases the glucose AUCs to levels similar to that of Example 1 at 10 mg/kg
  Glucose in the MTT compared to the vehicle controls: did not significantly decrease glucose compared to controls at any time point
